Results: publication PMC5547131
Results are given in words; binding and its absence hold for the method and conditions named. For some assays here: In cells and extracts the contact can be indirect. Some binding calls cover weakened binding; strength is not graded here. For some assays here: Sequences can lack the tags named with a protein. Each block holds one substance with its values, some of them ahead of it.

Sequences of proteins named here, by UniProt entry; tags and fusion partners are left off. A change or cut given only in a name is not applied to a line headed by its entry. A line that says so, or that is headed by a name, gives the form on record, which may keep a tag or linker. Residues count along the entry.
VEGF-C (P49767, residues 112-227): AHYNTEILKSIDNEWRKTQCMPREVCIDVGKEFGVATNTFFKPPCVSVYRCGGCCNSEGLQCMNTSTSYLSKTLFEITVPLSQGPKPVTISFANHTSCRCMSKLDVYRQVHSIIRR
Human VEGF-C156S (P49767, form named): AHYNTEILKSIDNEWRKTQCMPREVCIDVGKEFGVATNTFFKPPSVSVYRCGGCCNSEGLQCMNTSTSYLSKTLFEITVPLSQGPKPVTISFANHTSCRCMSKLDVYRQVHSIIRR
UniProt P35916, residues 25-1363: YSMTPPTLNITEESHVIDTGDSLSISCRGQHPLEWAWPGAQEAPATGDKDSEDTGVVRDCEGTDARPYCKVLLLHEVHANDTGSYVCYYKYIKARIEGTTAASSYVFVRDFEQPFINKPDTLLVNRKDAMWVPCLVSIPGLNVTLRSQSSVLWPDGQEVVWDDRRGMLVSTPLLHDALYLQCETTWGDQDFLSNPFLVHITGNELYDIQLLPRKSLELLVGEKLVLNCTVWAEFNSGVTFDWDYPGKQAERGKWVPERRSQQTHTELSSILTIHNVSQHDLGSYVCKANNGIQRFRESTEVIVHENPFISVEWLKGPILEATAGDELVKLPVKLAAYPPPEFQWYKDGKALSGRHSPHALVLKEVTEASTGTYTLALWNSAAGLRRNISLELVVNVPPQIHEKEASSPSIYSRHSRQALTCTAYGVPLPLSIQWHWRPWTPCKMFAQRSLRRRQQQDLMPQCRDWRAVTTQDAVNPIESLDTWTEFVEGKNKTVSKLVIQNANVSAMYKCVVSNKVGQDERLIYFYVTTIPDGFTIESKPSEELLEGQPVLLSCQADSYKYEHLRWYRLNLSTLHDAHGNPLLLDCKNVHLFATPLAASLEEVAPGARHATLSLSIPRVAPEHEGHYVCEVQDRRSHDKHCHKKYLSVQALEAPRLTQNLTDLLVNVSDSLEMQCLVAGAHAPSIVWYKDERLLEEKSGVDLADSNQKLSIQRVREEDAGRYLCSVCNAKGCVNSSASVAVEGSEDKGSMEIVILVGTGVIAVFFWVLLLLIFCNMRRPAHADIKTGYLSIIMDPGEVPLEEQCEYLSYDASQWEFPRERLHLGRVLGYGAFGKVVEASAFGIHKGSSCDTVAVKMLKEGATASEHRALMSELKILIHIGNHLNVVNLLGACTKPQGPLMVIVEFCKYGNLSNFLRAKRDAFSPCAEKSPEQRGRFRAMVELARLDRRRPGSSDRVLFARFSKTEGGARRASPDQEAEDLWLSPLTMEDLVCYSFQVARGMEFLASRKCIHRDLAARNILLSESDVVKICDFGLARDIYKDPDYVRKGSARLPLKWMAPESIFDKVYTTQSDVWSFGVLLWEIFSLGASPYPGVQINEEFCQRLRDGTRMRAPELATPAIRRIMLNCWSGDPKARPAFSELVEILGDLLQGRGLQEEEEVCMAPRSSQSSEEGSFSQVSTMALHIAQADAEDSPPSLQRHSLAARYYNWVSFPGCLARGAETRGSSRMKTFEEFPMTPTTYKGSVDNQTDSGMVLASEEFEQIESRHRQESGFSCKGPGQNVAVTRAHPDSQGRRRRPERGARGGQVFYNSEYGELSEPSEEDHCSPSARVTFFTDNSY

Key:
[1] = target: T1, Fc-CD146 (UniProt P43121); assay: pull-down; purified Fc, Fc-CD146 or Fc-VEGFR-3 (200 ng/ml each) with recombinant hVEGF-C (200 ng/ml) 1 h at 4 °C in HEPES buffer (0.05 M HEPES, 0.15 M NaCl, 0.001% Tween 20, pH 7.4), then held on protein G sepharose; WB; both purified
T1 sequence: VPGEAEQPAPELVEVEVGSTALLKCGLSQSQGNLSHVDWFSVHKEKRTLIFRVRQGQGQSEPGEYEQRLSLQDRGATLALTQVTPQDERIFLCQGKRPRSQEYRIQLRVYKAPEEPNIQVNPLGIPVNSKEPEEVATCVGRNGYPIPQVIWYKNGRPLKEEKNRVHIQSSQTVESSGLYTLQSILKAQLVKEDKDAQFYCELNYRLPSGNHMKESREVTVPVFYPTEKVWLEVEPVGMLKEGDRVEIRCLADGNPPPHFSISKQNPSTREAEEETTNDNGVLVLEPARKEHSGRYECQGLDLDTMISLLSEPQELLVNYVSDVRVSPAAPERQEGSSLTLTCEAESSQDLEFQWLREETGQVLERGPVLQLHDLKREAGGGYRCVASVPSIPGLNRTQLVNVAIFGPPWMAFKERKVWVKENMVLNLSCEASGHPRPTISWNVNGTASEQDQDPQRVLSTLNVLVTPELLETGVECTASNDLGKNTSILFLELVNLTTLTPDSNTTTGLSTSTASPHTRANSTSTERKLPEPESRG

[2] = target: T2, CD146 (human (endogenous in HDLEC)) (UniProt P43121); assay: Western blot of the CD146 dimer; serum-starved HDLECs treated with VEGF-C156S for 20 min at different concentrations; how the dimer was kept for the blot is not told
T2 sequence: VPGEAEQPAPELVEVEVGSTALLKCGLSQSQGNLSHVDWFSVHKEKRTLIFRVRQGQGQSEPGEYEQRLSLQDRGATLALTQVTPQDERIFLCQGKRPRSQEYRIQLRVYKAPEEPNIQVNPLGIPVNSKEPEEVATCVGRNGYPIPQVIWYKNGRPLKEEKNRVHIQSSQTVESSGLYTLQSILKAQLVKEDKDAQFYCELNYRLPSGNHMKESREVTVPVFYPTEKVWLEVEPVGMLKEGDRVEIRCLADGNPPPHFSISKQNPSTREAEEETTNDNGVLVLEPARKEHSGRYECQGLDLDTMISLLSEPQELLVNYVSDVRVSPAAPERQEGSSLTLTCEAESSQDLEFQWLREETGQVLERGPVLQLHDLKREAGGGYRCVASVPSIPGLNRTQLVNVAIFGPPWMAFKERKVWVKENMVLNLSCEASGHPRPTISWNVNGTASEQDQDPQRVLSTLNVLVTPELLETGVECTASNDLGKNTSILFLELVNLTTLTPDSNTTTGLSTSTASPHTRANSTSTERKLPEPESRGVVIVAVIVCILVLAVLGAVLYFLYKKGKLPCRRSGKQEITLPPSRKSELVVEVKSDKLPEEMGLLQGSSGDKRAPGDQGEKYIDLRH

[3] = target: T2, CD146 (human (endogenous in HDLEC)); assay: co-IP; HDLECs incubated with VEGF-C156S (100 ng/ml) conditional medium, then lysed in RIPA buffer; precipitated with anti-CD146 mAb AA1 or control mIgG, protein G sepharose, WB; only the binder purified
[4] = target: T2, CD146 (human (endogenous in HDLEC)); assay: co-IP; HDLEC lysates in RIPA buffer; precipitated with anti-CD146 mAb AA1 or control mIgG overnight at 4 °C, protein G sepharose, WB; cells in normal culture medium or pre-incubated with VEGF-C156S (100 ng/ml)

binding [1]: binds
Substance: recombinant hVEGF-C (from UniProt P49767 112-227) (ligand)

binding [2]: binds
Substance: CD146 (from UniProt P43121 24-646) (receptor)

binding [3]: binds
Substance: Human VEGF-C156S (from UniProt P49767 112-227) (ligand)

binding [4]: binds
Substance: VEGFR-3 (from UniProt P35916 25-1363) (receptor)

binding [4]: binds
Substance: VEGF-C (from UniProt P49767 112-227) (ligand)
